These are yes or no findings as the source states them, for the method shown. Sequences can lack the tags named with a protein.
Target: recombinant human pancreatic lipase fused to Strep-tag II (recHPL–ST II) (human) (UniProt P16233)
Assay: SEC; gel-filtration FPLC of refolded recHPL on HiPrep 16/60 Sephacryl S-200 HR; 10 mM phosphate buffer pH 8.0, 150 mM NaCl, 400 mM L-Arg; 0.5 ml/min; 4°C; fractions also checked by non-reducing SDS-PAGE, western blot and lipolytic activity; both purified

B1: recombinant human pancreatic lipase fused to Strep-tag II (recHPL–ST II) (enzyme, UniProt P16233 17-465)
chain: MKEVCYERLGCFSDDSPWSGITERPLHILPWSPKDVNTRFLLYTNENPNNFQEVAADSSSISGSNFKTNRKTRFIIHGFIDKGEENWLANVCKNLFKVESVNCICVDWKGGSRTGYTQASQNIRIVGAEVAYFVEFLQSAFGYSPSNVHVIGHSLGAHAAGEAGRRTNGTIGRITGLDPAEPCFQGTPELVRLDPSDAKFVDVIHTDGAPIVPNLGFGMSQVVGHLDFFPNGGVEMPGCKKNILSQIVDIDGIWEGTRDFAACNHLRSYKYYTDSIVNPDGFAGFPCASYNVFTANKCFPCPSGGCPQMGHYADRYPGKTNDVGQKFYLDTGDASNFARWRYKVSVTLSGKKVTGHILVSLFGNKGNSKQYEIFKGTLKPDSTHSNEFDSDVDVGDLQMVKFIWYNNVINPTLPRVGASKIIVETNVGKQFNFCSPETVREEVLLTLTPC
binding: no binding

Source: article PMC6267337
